This passage reports binding results from publication PMC3827131.

Amino acid sequences for entries named in this document (tags omitted). A change or cut given only in a name is not applied to a line headed by its entry.
UniProt A1L2K5: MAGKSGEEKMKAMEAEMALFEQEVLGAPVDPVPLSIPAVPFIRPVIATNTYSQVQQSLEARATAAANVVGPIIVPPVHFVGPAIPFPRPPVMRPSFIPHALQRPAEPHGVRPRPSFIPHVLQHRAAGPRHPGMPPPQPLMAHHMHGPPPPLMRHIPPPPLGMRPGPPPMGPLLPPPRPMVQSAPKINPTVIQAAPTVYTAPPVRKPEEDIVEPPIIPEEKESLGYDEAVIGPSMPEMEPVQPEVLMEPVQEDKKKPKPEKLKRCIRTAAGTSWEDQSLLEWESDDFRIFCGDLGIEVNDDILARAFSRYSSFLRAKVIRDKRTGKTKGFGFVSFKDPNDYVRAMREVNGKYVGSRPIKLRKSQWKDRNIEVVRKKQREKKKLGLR

Holding throughout (assay): split reporter; BiFC with Venus fragments VN and VC fused to the N-terminus of the ORFs; mRNAs injected into stage VI Xenopus oocytes, 48 h in OCM; confocal microscopy of the vegetal cortex at constant gain, and of hand-sectioned fixed oocytes
The target of experiment [1] is T1, VN-Rbm24b / VC-Rbm24b (BiFC fusion of Rbm24b) (Xenopus laevis) (UniProt Q9I8B3).
T1 sequence: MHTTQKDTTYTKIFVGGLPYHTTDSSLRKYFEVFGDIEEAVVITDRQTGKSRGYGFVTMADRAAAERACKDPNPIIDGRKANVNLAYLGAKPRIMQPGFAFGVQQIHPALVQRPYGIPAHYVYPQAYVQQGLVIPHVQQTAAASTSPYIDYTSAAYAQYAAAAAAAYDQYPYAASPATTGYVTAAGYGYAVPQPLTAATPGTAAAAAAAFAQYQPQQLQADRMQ

Experiment [2] deals with VN-XveloFL / VC-XveloFL (BiFC fusion of XveloFL) (Xenopus laevis).
Experiment [3] deals with VN-XveloSV / VC-XveloSV (BiFC fusion of XveloSV) (Xenopus laevis).

These are yes or no findings as the source states them, for the method shown. In cells and extracts the contact can be indirect. A result given as binding can be weak or reduced; the word gives no strength. Sequences can lack the tags named with a protein.

In the case of “VN-Rbm42b / VC-Rbm42b (BiFC fusion of Rbm42b) (from UniProt A1L2K5)”, the binding result in experiment [1] is on record as “binds”.

B1: VN-Rbm24b / VC-Rbm24b (BiFC fusion of Rbm24b) (protein, UniProt Q9I8B3 1-224)
chain: T1 sequence
Turning to B1, the binding result in experiment [2] and in experiment [3] was “binds” throughout.
